Values quoted from earlier work as cited in patent publication US20070254905A1, “Pharmaceutical Formulation for Increasing Solubility of 10-Hydroxycamptothecin Compounds in Non-Aqueous Polar Solvents” (priority 2004, published 2007).

Conditions: cited from earlier work

SMILES: CC[C@@]1(O)C(=O)OCc2c1cc1n(c2=O)Cc2cc3ccccc3nc2-1 [camptothecin, (S)-4-Ethyl-4-hydroxy-1H-pyrano[3′,4′:6,7]indolizino[1,2-b]quinoline-3,14(4H,12H)-dione]
- Solubility in water of the active lactone form (active lactone form): not more than 10 μg/ml
- Solubility in water of the carboxy anion form (inactive carboxy anion form): ≥ 4000 µg/mL
